Laboratory results reported in US5643726.
For part of these data: Where cells or extracts were used, other partners may take part. For part of these data: A negative result means that nothing was seen under these conditions. For part of these data: Construct, isoform or probe ends are uncertain for at least one entry.

Chains of the proteins cited; added tags and fusions are not shown. A change or cut given only in a name is not applied to a line headed by its entry. A line that says so, or that is headed by a name, gives the form on record, which may keep a tag or linker.
UniProt P22415: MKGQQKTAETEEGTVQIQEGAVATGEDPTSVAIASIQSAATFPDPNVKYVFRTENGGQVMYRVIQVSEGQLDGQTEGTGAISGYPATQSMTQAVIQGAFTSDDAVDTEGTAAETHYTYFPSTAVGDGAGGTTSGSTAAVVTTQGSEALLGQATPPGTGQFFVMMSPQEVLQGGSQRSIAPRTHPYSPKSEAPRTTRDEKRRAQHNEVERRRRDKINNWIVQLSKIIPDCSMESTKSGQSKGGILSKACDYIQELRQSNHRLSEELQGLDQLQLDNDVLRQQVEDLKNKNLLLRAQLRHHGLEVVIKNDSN
c-Fos/c-Jun (AP-1) in H4 nuclear extract (Homo sapiens), one chain, as listed by the source, chain 1 of 2: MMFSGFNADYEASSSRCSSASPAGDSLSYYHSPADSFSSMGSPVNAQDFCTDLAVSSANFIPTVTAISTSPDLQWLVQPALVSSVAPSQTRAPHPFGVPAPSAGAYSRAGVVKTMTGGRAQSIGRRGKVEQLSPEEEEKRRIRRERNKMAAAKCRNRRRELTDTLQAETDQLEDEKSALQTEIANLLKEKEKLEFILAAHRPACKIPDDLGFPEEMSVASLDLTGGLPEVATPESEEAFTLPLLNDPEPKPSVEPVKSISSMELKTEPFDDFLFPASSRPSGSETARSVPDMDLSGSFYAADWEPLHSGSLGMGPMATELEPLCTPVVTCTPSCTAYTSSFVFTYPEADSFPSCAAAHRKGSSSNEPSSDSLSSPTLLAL
c-Fos/c-Jun (AP-1) in H4 nuclear extract (Homo sapiens), one chain, as listed by the source, chain 2 of 2: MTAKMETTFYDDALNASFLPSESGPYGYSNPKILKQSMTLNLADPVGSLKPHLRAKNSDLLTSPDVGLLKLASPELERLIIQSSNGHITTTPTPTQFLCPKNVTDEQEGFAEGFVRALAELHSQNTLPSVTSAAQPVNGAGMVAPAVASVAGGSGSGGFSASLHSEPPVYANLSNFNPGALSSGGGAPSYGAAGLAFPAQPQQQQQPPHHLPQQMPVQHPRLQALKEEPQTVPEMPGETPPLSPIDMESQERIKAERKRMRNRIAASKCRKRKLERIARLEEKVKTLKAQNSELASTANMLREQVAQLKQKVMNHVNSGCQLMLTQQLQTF

Experiments:
[1] = molecular target: USF in H4 neuroglioma nuclear extract (43 kDa) (Homo sapiens) (UniProt P22415); experiment: competition with a labelled probe; conditions: protein in an extract
[2] = tested on: c-Fos/c-Jun (AP-1) in H4 nuclear extract (Homo sapiens); experiment: EMSA; conditions: complex diminished by c-fos antibody; protein in an extract; label: 32P
[3] = tested on: USF in HeLa nuclear extract (Homo sapiens); experiment: competition with a labelled probe; conditions: indirect, protein in an extract
[4] = molecular target: USF in H4 neuroglioma nuclear extract (43 kDa) (Homo sapiens) (UniProt P22415); experiment: EMSA; conditions: protein in an extract, label: 32P
[5] = tested on: USF in HeLa nuclear extract (Homo sapiens); experiment: EMSA; conditions: 1 ug HeLa nuclear extract; more binding than H4 extract; protein in an extract; label: 32P
[6] = tested on: c-Fos/c-Jun (AP-1) in H4 nuclear extract (Homo sapiens); experiment: competition with a labelled probe; conditions: 50-fold excess DK-1 did not affect AP-1 complex; c-fos mAb did not affect DK-1 complex; protein in an extract; label: 32P
[7] = competes with labeled DK-1, 0-50-fold

“GATCACCAGCTGTGGAATGTGTGTGATC (double strand) [AP-4 consensus fragment]”: no binding ([1]; no competition with DK-1 up to 50-fold).
“GATCCAGCTGACTCATCACTAG (double strand) [AP-1 consensus fragment]”: binds [2]; no binding ([1]; no competition with DK-1 up to 50-fold, anti-USF did not affect complex on AP-1 fragment, label: 32P).
“GCTTACTGTCAGCTGACTCGCCTGGCTCT (double strand) [5' Random]”: binds [1, 7].
With “GGGCCGGAATCGTGCTGTCGCCTGGCTCT (double strand) [AP-1/AP-4 Random]” the binding result ([1]; did not effectively compete, 0-50-fold) was “no binding” and the “activity on this sequence” value ([3]; same molar excess does not decrease in vitro transcription from APP promoter) was “not active”.
With “GGGCCGGATCACGTGACTCGCCTGGCTCT (double strand) [USF fragment]” the binding result [4] was “binds” and the “activity on this sequence” value ([3]; 20-fold excess decreases in vitro transcription from APP promoter, label: 32P) was “active”.
“GGGCCGGATCAGCTGACGATACCTGTCCG (double strand) [3' Random]”: binds [1, 7].
“GGGCCGGATCAGCTGACTCGCCTGGCTCT (double strand) [DK-1 fragment (APP promoter -58 to -30, AP-1/AP-4)]”: binds ([4]; 1 ug extract, 20 C, supershifted by anti-USF antiserum); binds [5]; no binding [6].
